Laboratory results from patent publication US5196515A, “Thiolactone bifunctional chelating agents for diagnostic and therapeutic products” (The Johns Hopkins University, priority 1991, dated 1993).

Assay: Tc-99m labeling of the thiolactone BCA-benzylamine adduct (DADT-BzA)

CN(CCN(CC(=O)NCc1ccccc1)CC(C)(C)S)CC(C)(C)S [DADT-BzA, 2,2,4,9,9-Pentamethyl 4,7-diaza-7-[benzylamidomethyl]-1,10-[bis-p-methoxybenzyl]-1,10-dithiadecane]
contaminating colloidal TcO2 (exchange labeling, HPLC): no evidence of contaminating colloidal TcO2
efficiency of labeling with Tc-99m (exchange) (ligand concentrations of 10^-4 M): greater than 90%
